{
  "sequences": {"note": "Chains of the proteins cited; added tags and fusions are not shown. Chains listed by the source or under a name are the forms on record and can include a tag or linker.", "hPXR-RXR heterodimer (human pregnane X receptor / retinoid X receptor), one chain, as listed by the source, chain 1 of 2": "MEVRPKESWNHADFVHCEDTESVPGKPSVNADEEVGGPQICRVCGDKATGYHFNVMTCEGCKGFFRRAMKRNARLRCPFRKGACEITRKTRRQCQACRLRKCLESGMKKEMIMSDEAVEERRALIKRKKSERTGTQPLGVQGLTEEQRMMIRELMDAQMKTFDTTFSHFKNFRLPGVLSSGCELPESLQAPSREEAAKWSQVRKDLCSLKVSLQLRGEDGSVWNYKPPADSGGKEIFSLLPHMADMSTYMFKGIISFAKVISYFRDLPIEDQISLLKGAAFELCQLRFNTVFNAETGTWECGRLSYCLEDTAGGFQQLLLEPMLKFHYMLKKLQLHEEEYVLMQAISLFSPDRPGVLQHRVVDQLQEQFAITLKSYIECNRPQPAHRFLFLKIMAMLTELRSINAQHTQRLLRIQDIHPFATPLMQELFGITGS", "hPXR-RXR heterodimer (human pregnane X receptor / retinoid X receptor), one chain, as listed by the source, chain 2 of 2": "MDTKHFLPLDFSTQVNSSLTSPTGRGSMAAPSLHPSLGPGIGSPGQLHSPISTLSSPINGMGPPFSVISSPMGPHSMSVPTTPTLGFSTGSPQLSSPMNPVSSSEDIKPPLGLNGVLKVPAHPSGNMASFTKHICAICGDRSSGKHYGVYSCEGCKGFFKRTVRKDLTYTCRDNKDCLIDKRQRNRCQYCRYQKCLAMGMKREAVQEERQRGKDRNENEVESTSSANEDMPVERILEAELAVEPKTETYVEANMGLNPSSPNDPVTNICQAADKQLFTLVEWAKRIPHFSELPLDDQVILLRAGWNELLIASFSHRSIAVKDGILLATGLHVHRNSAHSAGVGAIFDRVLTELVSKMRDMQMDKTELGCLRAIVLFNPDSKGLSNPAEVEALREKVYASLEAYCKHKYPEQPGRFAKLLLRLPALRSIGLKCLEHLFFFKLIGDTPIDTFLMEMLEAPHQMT"},
  "source": "patent US20060105385",
  "test_system": "hPXR-RXR heterodimer (human pregnane X receptor / retinoid X receptor)",
  "experiment": "EMSA",
  "conditions": "less affinity than XREM-DR3-1 or Prox-ER6; protein translated in vitro; label: 32P",
  "note": "Weaker means in comparison with the reference protein, sequence or condition of that experiment.",
  "data": [
    {"sequence": "CCTTGAAATCATGTCGGTTCAAGC (double strand) [XREM-ER6]", "values": [
      {"measurement": "binding result", "result": "binds more weakly"}
    ]}
  ]
}
